Reference: PubChem BioAssay AID590 (National Center for Advancing Translational Sciences (NCATS), 2007)
Where “and” joins values, the source holds several entries; their conditions need not be identical. Identical values can stand only once. In all, about 59,000 compounds went through this assay and about 6,500 (11%) were called active. Inconclusive means that the source gave no clear call. Such entries were picked first, then a sample of the others. No stated cut-off is given here; in the data, active means max dye-equivalent concentration above about 10 nM; inconclusive means mostly about 1.1 nM to 9.6 nM; inactive means weaker than that.

Test: qHTS Assay for Spectroscopic Profiling in A350 Spectral Region
Conditions: Compound autofluorescence, 340/450 nm, Alexa 350 dye-equivalents; hits give high values

Row | SMILES | max dye-equivalent concentration
1 | Cc1[nH]c2c(C)cccc2c(=O)c1Br | inconclusive: 1.7e-09 M
2 | COc1ccc(-c2nc3n(c(=O)c2C#N)CCCS3)cc1 | inconclusive: 6.8e-09 M
3 | Cc1cccc(-n2c(SCC(=O)NCc3ccco3)nnc2-c2ccco2)c1 | inactive
4 | CC(=O)Nc1cc2c(=O)n(Cc3ccccc3)c(C)nc2cc1N1CCOCC1 | inconclusive: 7e-09 M
5 | NC(=O)c1ccccc1N/C=C/C(=O)c1ccco1 | active: 3.5e-08 M
6 | CCn1c(=N)c(C(N)=O)cc2c(=O)n3cccc(C)c3nc21 | active: 1e-05 M
7 | COc1ccc(-c2noc(-c3ccc(Br)o3)n2)cc1OC | inconclusive: 1.6e-09 M
8 | Cc1ccc(C)c(NS(=O)(=O)c2c(C)nn(C)c2C)c1 | active: 5.6e-08 M
9 | CN1CCN(C2=C(Cl)C(=O)N(Cc3ccccc3)C2=O)CC1 | inconclusive: 1.7e-09 M
10 | CCCN1C(=O)C(NC(C)=O)c2cc(OC)ccc21 (stereo not drawn) | inconclusive: 3.1e-09 M
11 | CCc1ccccc1NC(=O)CSc1nc2c(c(-c3ccco3)c1C#N)CCCC2 | active: 3.8e-08 M
12 | C=CCOn1c(=O)c(-c2ccc(OC)cc2)[n+]([O-])c2ccccc21 | inconclusive: 6.5e-09 M
13 | CN(C)C(=O)CSc1nnc(-c2cc(-c3cccs3)nc3ccccc23)o1 | active: 1.5e-07 M
14 | Cc1cc(N=Cc2c(O)n(-c3ccc4c(c3)OCO4)c(=O)c3ccccc23)ccn1 | active: 1.8e-08 M
15 | COc1ccc2c(c1)c(C(O)CN1CCC3(CC1)OCCO3)c(C)n2C (stereo not drawn) | inactive
16 | CCCC1(C(=O)OCC)NC(c2ccc(N(C)C)cc2)C2C(=O)N(c3ccc(F)cc3)C(=O)C21 (stereo not drawn) | inconclusive: 2.7e-09 M
17 | Cc1ccc(CN2C3=NC(=O)CN3c3ccccc32)cc1 | inconclusive: 4.3e-09 M
18 | CCCc1nc(NCc2ccco2)c(C#N)c2c1COC(C)(C)C2 | inconclusive: 2e-09 M
19 | Cc1cc(C)cc(N(CCC#N)C(=O)CSc2nc3nc(C)cc(C)n3n2)c1 | inconclusive: 1.1e-09 M
20 | Cc1cccc(CNc2ncnc3ccc(-c4ccoc4)cc23)c1 | active: 7.4e-08 M
21 | COCCNC(=O)CN(c1cc(Cl)ccc1OC)S(C)(=O)=O | inactive
22 | COc1ccc(CNC(=O)c2ccc(NS(=O)(=O)c3c(C)noc3C)cc2)cc1 | inactive
23 | O=C(CSc1nnnn1-c1ccc2c(c1)OCO2)NCc1ccccc1 | inconclusive: 1.3e-09 M
24 | COc1ccccc1-c1cc(C(F)(F)F)nc(S(=O)(=O)CCCC(=O)NC(C)C)n1 | active: 6.4e-08 M

Row | SMILES | max dye-equivalent concentration
25 | CCC(C)(C)NC(=O)C1CCN(c2nc(C)cc(C)n2)CC1 | inactive
26 | COc1ccccc1CN(CC(=O)NCc1ccco1)C(=O)CNS(=O)(=O)c1ccccc1 | inconclusive: 1.3e-09 M
27 | COc1ccccc1NC(=O)c1ccccc1-c1nc(-c2ccccc2OC)no1 | inactive
28 | CN(C)Cc1ccccc1-c1cncnc1NCc1cccs1 | inactive
29 | C1CCc2c(nc3nnnn3c2N2CCOCC2)C1 | inactive
30 | C[C@@H]1C(=O)O[C@@H]2C[C@@]34[C@H]5C[C@@H](C(C)(C)C)[C@@]36[C@@H](OC(=O)[C@@H]6O)O[C@]4(C(=O)O5)[C@@]12O | inactive
31 | COC(=O)c1c(-c2ccc(F)cc2)noc1N | inconclusive: 5.1e-09 M
32 | O=C(Nc1ccccc1)N1CC2(CCN(C(=O)c3cccc(F)c3)CC2)C1 | inconclusive: 2.5e-09 M
33 | O=c1c(-c2ccc(F)cc2)nc2cnc(Oc3ccccc3)nc2n1C1CC1 | inconclusive: 1.8e-09 M
34 | Cc1ccc(N2CCCCn3c2nc2c3c(=O)[nH]c(=O)n2C)cc1 | inconclusive: 1.8e-09 M
35 | CN(CC(=O)N1CCN(c2ccccn2)CC1)S(=O)(=O)c1ccccc1 | inconclusive: 3.1e-09 M
36 | Cc1cc(-c2ccccc2N)n[nH]1 | inconclusive: 3.3e-09 M
37 | CCOC(=O)CNC(=O)Nc1cccc(Cl)c1C | inactive
38 | Cc1ccc(C)c(C(=N)c2ccccc2Cc2ccccc2)c1 | inactive
39 | O=C(Nc1cccnc1)c1cnc2ccccc2n1 | inactive
40 | Cc1cc(C)c2c(C)nn(C3CCCCC3)c2n1 | inconclusive: 1.1e-09 M
41 | CCOC(=O)C(C)Sc1nc2c(cnn2-c2ccc(C)cc2)c(=O)[nH]1 (stereo not drawn) | inactive
42 | CC(C)(C)c1ccc(S(=O)(=O)/C=C\C#N)cc1 | inconclusive: 1.3e-09 M
43 | CCOc1ccc2c(O)csc2c1 | inconclusive: 6.8e-09 M
44 | Cc1cccc(-c2nnn(CC/C(N)=N/O)n2)c1 | inactive
45 | CCOc1ccc(OCc2ccc(C(=O)Nc3ccc(Cl)cn3)o2)cc1 | inconclusive: 5.1e-09 M
46 | Cn1c(COc2ccccc2)nnc1SCc1nc2ccccc2[nH]1 | active: 1.6e-08 M
47 | COC(=O)c1[nH]c2cc(OC)ccc2c1NC(=O)CCN1CCCC(C)(C)C1 | inactive
48 | O=c1c(-c2ccccc2)nc2cnc(N3CCOCC3)nc2n1C[C@H]1CCCO1 | active: 7.8e-08 M

Row | SMILES | max dye-equivalent concentration
49 | COc1ccc(N(CC(=O)NC(C)(C)C)S(=O)(=O)c2ccccc2)cc1OC | inactive
50 | O=C(O)c1cc2ccccc2c(S(=O)(=O)O)c1O | inconclusive: 3.5e-09 M
51 | Cn1c(CN2CCOCC2)nc2cc(NC(=O)c3ccc(F)cc3)ccc21 | inconclusive: 1.5e-09 M
52 | O=C(c1ccc(Br)cc1)C1CCc2occc2C1=O (stereo not drawn) | inconclusive: 1.3e-09 M
53 | CCOC(=O)C(C(=O)OCC)c1cc(Br)c2noc3c2c1C(=O)c1ccccc1-3 | inconclusive: 4.6e-09 M
54 | Cn1c(CN2CCOCC2)nnc1SCC(=O)NCCc1ccccc1 | inactive
55 | CCCOc1ccc(/C(O)=C2/C(=O)C(=O)N(c3cc(C)on3)C2c2ccc(C(=O)OC)cc2)cc1 (stereo not drawn) | inconclusive: 5.5e-09 M
56 | CNC(=O)C1CC(=O)N(Cc2ccc3c(c2)OCO3)C(=Nc2ccc(F)cc2)S1 (stereo not drawn) | inactive
57 | CC1(C)N=C(/C=N/O)CN1O | active: 7e-08 M
58 | C=COC(=O)CSc1nc(-c2cccs2)ccc1C#N | active: 1.1e-07 M
59 | CC(C)C[C@H](N)c1nnc(S(=O)(=O)Cc2cccc(F)c2)o1 | inconclusive: 1.7e-09 M
60 | CCc1c(C)c2ccc(OCC(=O)OC)cc2oc1=O | inconclusive: 6e-09 M
61 | C#CCSc1n[nH]c(-c2ccco2)n1 | inactive
62 | Cc1ccccc1Cc1c(C)nc2c(C(=O)N3CCN(Cc4ccc5c(c4)OCO5)CC3)cnn2c1C | inconclusive: 6e-09 M
63 | Cc1ccc(S(=O)(=O)CCC(=O)OCC(=O)Nc2cc(C)on2)cc1 | inconclusive: 2.4e-09 M
64 | Cc1ccc(C(=O)CSc2nnc(COc3cccc(C)c3)o2)cc1 | inactive
65 | COCCNc1ncnc2c1cnn2Cc1ccc(Cl)cc1 | inconclusive: 1.5e-09 M
66 | Cc1nc2ccc(NC(=O)N3CCCCC3)cc2s1 | inconclusive: 2.5e-09 M
67 | CCOC(=O)C(NCc1ccc2c(c1)OCO2)(NC(=O)CC)C(F)(F)F (stereo not drawn) | inconclusive: 2.6e-09 M
68 | CCNc1ncc2nc(-c3ccc(Cl)cc3)c(=O)n(-c3ccc(OC)cc3)c2n1 | active: 2.7e-08 M
69 | CN(C)CCOC(=O)[C@@H](c1ccccc1)C1(O)CCCC1 | inactive
70 | O=C1C2CC=CCC2C(=O)N1c1n[nH]c(Cc2ccccc2)n1 (stereo not drawn) | inconclusive: 1.5e-09 M
71 | Cc1nn(CCC(=O)O)c2nc(-c3cccnc3)cc(C(F)(F)F)c12 | active: 1.1e-07 M
72 | CC(C)C1Cc2c(sc3c2c(=O)n(-c2ccccc2)c2nncn32)CO1 (stereo not drawn) | inactive

Row | SMILES | max dye-equivalent concentration
73 | C1=Nc2c(Nc3ccccc3)ncnc2Oc2ccccc21 | inconclusive: 1.2e-09 M
74 | CCn1c(SCC(=O)NC)nnc1C(C)C | inconclusive: 2.5e-09 M
75 | Cc1cc2c(=O)[nH]c(N)nc2nc1C | inconclusive: 5.1e-09 M
76 | Cc1ccc(C)c(NS(=O)(=O)c2ccc(OCC(=O)N3CCOCC3)cc2)c1 | inactive
77 | c1nc(NC2CC2)c2cc(-c3ccoc3)ccc2n1 | inactive
78 | Cc1cccc2cc(CN(Cc3ccco3)C(=O)c3ccncc3)c(=O)[nH]c12 | inconclusive: 1.5e-09 M
79 | O=C(CN(Cc1ccccc1)C(=O)CCC(=O)Nc1nccs1)NCc1ccco1 | inconclusive: 1.2e-09 M
80 | COc1cc(-c2cc(C(F)(F)F)n3ncc(C(=O)O)c3n2)cc(OC)c1OC | inconclusive: 2.2e-09 M
81 | O=C(Cc1cn2ccsc2n1)Nc1cccc2cnccc12 | inactive
82 | Cc1onc(-c2ccccc2)c1C(=O)Nc1nc(-c2cc(F)ccc2F)cs1 | inconclusive: 1.4e-09 M
83 | O=C1CN(CC(=O)N2CCOCC2)c2ccccc2O1 | inconclusive: 1.7e-09 M
84 | O=C(CN1CC(c2ccccc2)CC1=O)OCc1ccccc1F (stereo not drawn) | inconclusive: 1.2e-09 M
85 | C[C@H]1CN(CCO)CCN1c1ccccc1 | inconclusive: 4.5e-09 M
86 | C/C(=N\O)c1ccc2[nH]ccc2c1 | inactive
87 | Nc1nnnn1/N=C/C=C/c1ccccc1 | inconclusive: 5.7e-09 M
88 | Fc1ccc(CN(C2=NCCN2)c2c(Cl)cccc2Cl)cc1 | inactive
89 | CN1CCN(c2nc(C(N)=O)cc(-c3ccccc3)n2)CC1 | active: 5.4e-08 M
90 | O=c1c(CCc2ccccc2)nc2cnc(N3CCNCC3)nc2n1Cc1cccs1 | inconclusive: 5.5e-09 M
91 | CN(C)[C@@H]1C(=O)C(C(N)=O)=C(O)[C@]2(O)C(=O)C3=C(O)c4c(O)ccc(Cl)c4[C@H](O)[C@H]3C[C@@H]12 | inconclusive: 1.4e-09 M and inconclusive: 2.9e-09 M
92 | CCn1c(CNC(C)=O)nnc1SCC(=O)c1ccc(Br)cc1 | inconclusive: 2.1e-09 M
93 | O=C(O)CCCC(=O)Nc1ccccc1C(=O)O | inconclusive: 1.4e-09 M
